{"source": "patent US20250213545A1", "about": "(AJOU UNIVERSITY INDUSTRY-ACADEMIC COOPERATION FOUNDATION, priority 2022, published 2025)", "key": {"TH-positive neurons": {"test_system": "TH-positive neurons", "conditions": "6-OHDA+fexofenadine group; 20 mg/kg orally once a day; 21 days after 6-OHDA injection", "experimental": "Specifically, 8-week-old C57BL/6 mice (Daehan Biolink, Eumseong, North Chungcheong Province, Korea) were anesthetized by intraperitoneal (i.p.) injection of 200 mg/kg of 2,2,2-tribromoethanol (Sigma-Aldrich), and they were placed in a stereotaxic apparatus (David Kopf Instruments, Tujunga, CA, USA) equipped With a mouse adapter. Using a Hamilton syringe (Hamilton, Bonaduz, Switzerland), 2 μL of 6-OHDA-HCl solution (2 mg/mL) (Sigma Aldrich) in 0.02% ascorbic acid was injected into the right striatum at the following stereotactic coordinates (mm from the bregma): IP+1.0; ML-1.8; DV −3.2. The skin was sutured, and the animal was removed from the stereotaxic apparatus and placed on a heating pad for 30 minutes. Normal control mice for the diseased mouse model were injected with a vehicle (0.02% ascorbic acid) instead of 6-OHDA-HCl solution.\nBehavioral experiments were performed 18 days after 6-01-IDA injection, and mice were sacrificed 21 days after 6-01-IDA injection, and histological analysis was performed."}, "IBA-1 positive cells": {"test_system": "IBA-1 positive cells", "conditions": "PFF-fexofenadine group vs PFF-PBS; 20 mg/kg orally once a day; day 30", "experimental": "The skin was sutured, and the animal was removed from the stereotaxic apparatus and placed on a heating pad for 30 minutes."}}}
{"compound": "CC(C)(C(=O)O)c1ccc(C(O)CCCN2CCC(C(O)(c3ccccc3)c3ccccc3)CC2)cc1", "note": "(stereo not drawn) [fexofenadine]", "values": [{"measurement": "density of TH-positive neurons in the striatum, ipsilateral compared to contralateral side, compared to the normal mouse control group", "setting": "TH-positive neurons", "result": "~80", "unit": "%"}, {"measurement": "density of IBA-1 positive cells in the cortex and striatum, contralateral side", "setting": "IBA-1 positive cells", "result": "decreased compared to the diseased mouse control group"}, {"measurement": "density of IBA-1 positive cells in the cortex, striatum and substantia nigra, ipsilateral side", "setting": "IBA-1 positive cells", "result": "significantly reduced"}]}
